The target of experiment [1] is T1, Psc3 (GAL4 DNA-binding domain bait, pGBKT7) (S. pombe) (UniProt O13816).
T1 sequence: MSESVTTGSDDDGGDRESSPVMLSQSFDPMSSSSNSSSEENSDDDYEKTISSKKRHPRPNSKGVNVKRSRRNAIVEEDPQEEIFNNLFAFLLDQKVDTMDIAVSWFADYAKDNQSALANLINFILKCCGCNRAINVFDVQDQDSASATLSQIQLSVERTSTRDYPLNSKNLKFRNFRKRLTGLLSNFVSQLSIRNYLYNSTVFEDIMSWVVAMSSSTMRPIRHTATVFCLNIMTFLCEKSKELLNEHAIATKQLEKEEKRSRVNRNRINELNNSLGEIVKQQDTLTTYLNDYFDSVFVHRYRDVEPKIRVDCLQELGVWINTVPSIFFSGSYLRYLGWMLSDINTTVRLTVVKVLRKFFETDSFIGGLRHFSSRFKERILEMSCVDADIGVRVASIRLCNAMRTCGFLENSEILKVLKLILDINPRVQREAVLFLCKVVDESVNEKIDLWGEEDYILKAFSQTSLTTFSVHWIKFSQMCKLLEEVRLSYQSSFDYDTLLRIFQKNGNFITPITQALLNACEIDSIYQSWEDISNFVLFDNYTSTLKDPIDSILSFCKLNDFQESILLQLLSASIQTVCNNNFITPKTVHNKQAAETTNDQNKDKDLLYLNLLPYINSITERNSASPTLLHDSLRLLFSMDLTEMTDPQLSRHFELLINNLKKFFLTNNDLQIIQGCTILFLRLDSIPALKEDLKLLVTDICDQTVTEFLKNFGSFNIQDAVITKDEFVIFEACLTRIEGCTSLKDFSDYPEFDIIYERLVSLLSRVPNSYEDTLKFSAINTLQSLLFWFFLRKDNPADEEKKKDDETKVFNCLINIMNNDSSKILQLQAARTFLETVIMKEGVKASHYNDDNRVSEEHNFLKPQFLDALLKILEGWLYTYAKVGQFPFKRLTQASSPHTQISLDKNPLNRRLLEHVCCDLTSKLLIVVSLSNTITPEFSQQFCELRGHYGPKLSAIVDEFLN
The experiment is described as follows: two-hybrid; GAL4 DNA-binding domain baits (pGBKT7) and GAL4 activation domain preys (pGADT7) in S. cerevisiae PJ69-4A; spotted onto SD minimal medium lacking appropriate amino acids.

Experiment [2] concerns the target T2, Psm3 (GAL4 DNA-binding domain bait, pGBKT7) (S. pombe) (UniProt O42649).
T2 sequence: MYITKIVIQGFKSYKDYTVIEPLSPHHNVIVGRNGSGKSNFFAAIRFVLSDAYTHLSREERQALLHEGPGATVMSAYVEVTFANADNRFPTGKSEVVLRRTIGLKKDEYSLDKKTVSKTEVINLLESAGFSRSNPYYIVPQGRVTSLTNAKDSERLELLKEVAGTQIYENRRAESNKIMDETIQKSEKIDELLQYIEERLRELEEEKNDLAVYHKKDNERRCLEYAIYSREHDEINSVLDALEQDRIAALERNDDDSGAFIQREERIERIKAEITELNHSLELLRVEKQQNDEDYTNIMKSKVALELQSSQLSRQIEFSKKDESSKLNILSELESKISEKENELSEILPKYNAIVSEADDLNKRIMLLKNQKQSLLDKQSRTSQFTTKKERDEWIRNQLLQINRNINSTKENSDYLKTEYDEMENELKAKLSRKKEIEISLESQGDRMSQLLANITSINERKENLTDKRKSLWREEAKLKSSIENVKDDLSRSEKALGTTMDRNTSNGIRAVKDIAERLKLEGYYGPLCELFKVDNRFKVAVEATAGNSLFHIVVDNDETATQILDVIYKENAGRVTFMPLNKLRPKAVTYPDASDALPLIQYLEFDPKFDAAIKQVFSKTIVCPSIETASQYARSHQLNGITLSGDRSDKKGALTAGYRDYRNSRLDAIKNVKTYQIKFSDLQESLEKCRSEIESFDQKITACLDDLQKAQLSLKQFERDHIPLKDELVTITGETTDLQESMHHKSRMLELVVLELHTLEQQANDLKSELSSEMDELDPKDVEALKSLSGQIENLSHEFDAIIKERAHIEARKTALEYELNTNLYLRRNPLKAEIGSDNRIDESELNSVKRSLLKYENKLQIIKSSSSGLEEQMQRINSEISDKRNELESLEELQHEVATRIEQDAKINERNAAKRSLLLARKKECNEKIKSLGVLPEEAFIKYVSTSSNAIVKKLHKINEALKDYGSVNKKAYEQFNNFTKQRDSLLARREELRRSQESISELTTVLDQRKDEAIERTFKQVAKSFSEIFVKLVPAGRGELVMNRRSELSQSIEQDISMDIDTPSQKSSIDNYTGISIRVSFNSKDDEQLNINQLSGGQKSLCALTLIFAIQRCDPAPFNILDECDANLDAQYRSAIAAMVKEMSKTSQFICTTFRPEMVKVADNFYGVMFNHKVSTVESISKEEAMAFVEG
Described as above.

In a further experiment the target is T3, Psm1–Pk (S. pombe) (UniProt O94383).
T3 sequence: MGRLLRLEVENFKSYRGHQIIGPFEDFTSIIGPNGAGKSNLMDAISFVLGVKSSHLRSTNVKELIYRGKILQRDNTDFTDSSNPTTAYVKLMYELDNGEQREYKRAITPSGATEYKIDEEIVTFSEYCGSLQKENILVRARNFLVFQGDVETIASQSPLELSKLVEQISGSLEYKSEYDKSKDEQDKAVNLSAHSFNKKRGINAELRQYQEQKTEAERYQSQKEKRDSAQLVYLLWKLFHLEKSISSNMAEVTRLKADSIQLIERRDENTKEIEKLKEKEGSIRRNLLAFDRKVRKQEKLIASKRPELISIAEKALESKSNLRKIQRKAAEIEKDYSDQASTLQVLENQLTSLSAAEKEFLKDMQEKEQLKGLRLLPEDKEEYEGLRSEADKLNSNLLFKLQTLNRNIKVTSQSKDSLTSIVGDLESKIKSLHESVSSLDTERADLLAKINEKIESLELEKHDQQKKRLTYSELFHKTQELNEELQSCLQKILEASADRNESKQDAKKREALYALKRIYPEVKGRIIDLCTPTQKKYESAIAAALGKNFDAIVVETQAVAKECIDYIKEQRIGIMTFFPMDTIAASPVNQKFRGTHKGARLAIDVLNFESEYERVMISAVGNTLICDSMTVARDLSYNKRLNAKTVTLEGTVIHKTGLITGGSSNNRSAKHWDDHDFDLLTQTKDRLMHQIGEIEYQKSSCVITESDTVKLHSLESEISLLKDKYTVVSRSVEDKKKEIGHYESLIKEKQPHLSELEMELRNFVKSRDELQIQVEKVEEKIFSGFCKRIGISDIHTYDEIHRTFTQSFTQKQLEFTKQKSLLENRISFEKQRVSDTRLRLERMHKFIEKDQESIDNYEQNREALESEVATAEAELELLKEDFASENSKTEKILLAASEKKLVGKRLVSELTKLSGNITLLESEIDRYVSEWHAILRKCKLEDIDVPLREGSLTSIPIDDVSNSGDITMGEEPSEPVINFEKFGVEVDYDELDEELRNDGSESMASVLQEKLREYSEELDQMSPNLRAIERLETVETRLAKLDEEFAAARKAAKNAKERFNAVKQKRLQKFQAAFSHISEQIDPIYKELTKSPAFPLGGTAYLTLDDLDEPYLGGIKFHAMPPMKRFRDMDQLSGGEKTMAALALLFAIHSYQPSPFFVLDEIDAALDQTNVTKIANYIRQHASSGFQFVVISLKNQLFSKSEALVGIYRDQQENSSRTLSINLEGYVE
The experiment is described as follows: co-IP; protein extracts of S. pombe cells expressing Psm1–Pk and Mus81–Myc, grown in YES or YES plus 0.01% MMS for 3 h; anti-V5 agarose beads for 4 h to bind Psm1–Pk; blotted against the Pk and Myc tags.

Results are given in words; binding and its absence hold for the method and conditions named. For part of these data: In cells and extracts the contact can be indirect. Some binding calls cover weakened binding; strength is not graded here. For part of these data: Sequences can lack the tags named with a protein.

B1: Eme1 (GAL4 activation domain prey, pGADT7) (protein, UniProt Q9C103 1-735)
chain: MTLQSTDSAIVIDSEADVDISSSQASPSKDNIALSEHNVITVLDTPQRSTQCDSLLKSFSTPLVSGSEDVLPSPRDALNITNKKSVTDNLLLSLTSSNQSTNTNLNPSSRVEIINLNSSPPNSLSSQPKHQEFHLFHTPTIPRTTQLSSKTSSPIVIPDDNEQVASPLSKKAASLTSSPLKDFQSSPPLSTVLQKSHSLHDILLDTNDDDHFPFTQSPLTKTKSFNDALTSSSSILKPCMPSIASPTSNRLSHAPSTPNLFPNQDSSNTIDLINNRSKTSVENQERTFNLTSDVHLDSPTSPSKHSSIEPNTSQEDSFQELPSLNKLSIQSRAFKKMRLPKISRTTDTPPASTSNSNKKNLDKLKKMRKLCSRSLEPYELDSNTQRKRKRYEDSLKKSKTLDKVDSLNRKMAKELDRKNSKELQKINKVKRTKEECLSEIILLSPDDWASSWYSTVRSQLDSYNCQFVVNSNQPKDSIMWKRKVNNVFNSSTNRFELSIEHEQIEPFALLRLKCRDFIKYIEEDQADTFFHEMSEKFKGCKLILLLEGIPNYFKSLKAELNRQYAAAVNSGTRPLLFGSLSKYQNFTKEKLESEIVRFSFEHSILINTSNDEKETAQWIVSFTGDIALSRYKHFSKFSARASTTEIGHVKSADRIENSLNFMLRQILRVTPNIANAICDQFDSIPSLIHHLKTHGEESLTNVVIQSSISERNLGPVLSRRIYNTFLCKEASSDAP
B1: in experiment [1], the binding entry was “binds weakly”.

B2: Mus81 (GAL4 activation domain prey, pGADT7) (protein, UniProt P87231 1-608)
chain: MDCGNPLFLQWIQEWMEESTRRFPKSYQTWRKAYDSMKSCPITFHRPSQALALKGIGPTICAKLEKKWNAYCLENNIPISTHNEQNDSHVNANKSSSETSSEKPRSVKKPTTRKRKVYVPSYRSGAYSILCALYMLNKHEFATKPQIVTMAQPYCDSSFGSATDRNMRYTAWSAMKTLITKNLVYQTGHPSKYCLTDDGEEVCIRLAKVDDSFQRKHTVSNFSVSKSDDHDSSLCQPPNFVTSINKAGSSSDHGGELHVTYCPVDHNEVSDGVETDIDVDQVDSLTGIHDHHIINNEQLIDLTEQEKKQPNESNLSNLKIETVLFSNCTVFLLIDTREIRSPLDRNLIIDKLTNDFGVNCQVRSLELGDALWVARDMESGQEVVLDFVVERKRYDDLVASIKDGRFHEQKARLKKSGIRSVTYILEESSYDESFTESIRTAVSNTQVDQLFHVRHTRSLEHSVSLLAEMTKQINLFYEKRKTLAVIPDLSIEAKTYESLREQLLKIDPSTPYHISYHAFSSVLSKSSTLTVGDIFIRMLMTIKGISASKAIEIQKKYPTFMHLFEAYEKSSSSQERNLLLNKTCQGYGFQTIGPALSAKVASVFFPES
Take B2: the binding result in experiment [2] is given as “binds”.

B3: Mus81–Myc (protein, UniProt P87231 1-608)
chain: B2 chain
B3: the binding result with Psm1–Pk (S. pombe) is recorded as “binds”.

These data come from publication PMC6051343.
